For some assays here: No signal at the amounts used counts as a negative. For some assays here: At least one verdict was read from the data and is not stated in words by the source. For some assays here: The exact form of at least one protein or probe is not confirmed.
Columns and labels:
[1] = system: Human hemoglobin A0 (HbA0, non-glycated) (Homo sapiens); assay: photoelectric aptasensor (bacteriorhodopsin photocurrent); details: 0.1-100 ug/mL, no cross reactivity; 5' amino-C12; 15 min single-step detection; chips stored in 10 mM PB, 100 mM NaCl, pH 8.0, 4 °C; commercial protein; single-stranded DNA
[2] = system: Human hemoglobin A0 (HbA0, non-glycated) (Homo sapiens); assay: photoelectric aptasensor (bacteriorhodopsin photocurrent), Langmuir fit; details: aptamer immobilized, monomeric Kd; 5' amino-C12; 15 min single-step detection; chips stored in 10 mM PB, 100 mM NaCl, pH 8.0, 4 °C; commercial protein; single-stranded DNA

Chains of the proteins cited; added tags and fusions are not shown. Chains listed by the source or under a name are the forms on record and can include a tag or linker.
Human hemoglobin A0 (HbA0, non-glycated) (Homo sapiens), one chain, as listed by the source, chain 2 of 2: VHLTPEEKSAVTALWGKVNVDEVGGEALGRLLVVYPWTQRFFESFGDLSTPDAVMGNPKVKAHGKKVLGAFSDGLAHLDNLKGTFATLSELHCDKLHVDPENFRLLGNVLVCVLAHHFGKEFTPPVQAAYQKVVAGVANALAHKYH
Human hemoglobin A0 (HbA0, non-glycated) (Homo sapiens), one chain, as listed by the source, chain 1 of 2: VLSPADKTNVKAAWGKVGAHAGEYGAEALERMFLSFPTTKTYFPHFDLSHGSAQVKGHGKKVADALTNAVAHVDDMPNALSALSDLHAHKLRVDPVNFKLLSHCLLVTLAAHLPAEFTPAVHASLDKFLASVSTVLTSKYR

Row | Sequence | binding result [1] | Kd [2] [µM]
1 | GGCAGGAAGACAAACACATCGTCGCGGCCTTAGGAGGGGCGGACGGGGGGGGGCGTTGGTCTGTGGTGCTGT [HbA1c aptamer] | no binding | 
2 | GGCAGGAAGACAAACACCAGGTGAGGGAGACGACGCGAGTGTTAGATGGTAGCTGTTGGTCTGTGGTGCTGT [HbA0 aptamer] |  | 0.079
